In article PMC6544321:
These are yes or no findings as the source states them, for the method shown. Some binding calls cover weakened binding; strength is not graded here.

The chains behind the UniProt entries cited, without tags or fusion partners. Where a name states a change or a piece, a line headed by the entry shows the natural chain unless it says otherwise. Residues count along the entry.
UniProt Q12692, residues 23-119: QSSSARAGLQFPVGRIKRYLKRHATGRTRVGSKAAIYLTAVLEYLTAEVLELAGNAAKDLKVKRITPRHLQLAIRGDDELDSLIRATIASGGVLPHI

Biological target: H2A.Z (the H2A.Z part of yeast single-chain H2A.Z-H2B) (yeast) (UniProt Q12692)
Experiment: crystal structure; Chz1-MC and scZB mixed 1:1, Superdex 200, crystals at 16°C in 0.1 M Bicine (pH 9.0), 2% 1,4-dioxane, 10% PEG 20000; 1.65 Å; both purified

- binding: binds
B1: middle and C-terminal region of Chz1 (Chz1 64-153) (domain or fragment, UniProt P40019 64-153)
chain: TVEDSESDMDDAKLDALMGNEGEEEEDDLAEIDTSNIITSGRRTRGKVIDYKKTAEELDKKEPSTGSKDDVGYGEKEEDDEDEEDDDFKE
